This is one part of the list. These are further read-outs of the screen, such as a control signal, another cell line or another target. No call is given for them. Most of these compounds were active or inconclusive in the main read-out, so they are no random draw. Potencies come from curve fits of mixed quality, noted in brackets.

This experiment is described as follows: IkB Signaling. To be noted: ABC-DLBCL IkBa-CBG/CBR dual luciferase ratio (green luciferase fused to IkBa over red control in OCI-Ly3 lymphoma cells), 4 h; measured here: control luc red channel unless noted. A digest of the protocol: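 Curves were fitted separately to fusion (green), unfused (red) and ratio luminescence, then classed by r2, magnitude and activity. Cells: OCI-Ly3, 4 h compound plus doxycycline at 37C; 10 uM MG-132 defined full response.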
What is called AC50 is the midpoint of the concentration-response curve, whichever way the signal moves. Turning to `CCc1ccc(NC(=O)Cn2c(=O)n(-c3ccc(Cl)c(Cl)c3)c(=O)c3c(C)c(C)sc32)cc1`, the concentration at half-maximal activity (AC50) was 0.2 µM [rising, full curve, poor fit].

On to `COc1ccc(Cl)c2sc(NC(=O)c3ccc(S(=O)(=O)N4CCOCC4)cc3)nc12`, for which the concentration at half-maximal activity (AC50) is 0.398 µM [falling, full curve].

As for `Cc1c(-c2nc(-c3ccccc3)no2)nnn1-c1ccc(F)c(Cl)c1`, the concentration at half-maximal activity (AC50) is 7.94 µM [falling, partial curve].

`O=S(=O)(Nc1ccc(-c2cn3ccsc3n2)cc1)c1ccc2c(c1)OCCO2`: the AC50 is 15.8 µM [falling, partial curve].

As for `COc1ccc(NC(=O)c2c(NCc3cccs3)sc3c2CCC(C)C3)c(OC)c1` (configuration not stated), the AC50 is 31.6 µM [falling, single point].

As for `O=C(CSc1nnc(-c2ccccc2Cl)o1)N1CCCc2ccccc21`, the half-maximal activity concentration (AC50) is 31.6 µM [falling, single point].

Regarding `Cc1c(C(=O)N(Cc2ccccc2F)C2CCS(=O)(=O)C2)oc2ccccc12` (configuration not stated), the half-maximal activity concentration (AC50) was 10 µM [falling, partial curve].

For `Cc1nn(C)c2c1c(C(F)(F)F)cc(=O)n2C(C)C(=O)Nc1ccccc1F` (configuration not stated), the AC50 is 39.8 µM [falling, single point].

`CCOc1ccc(C(=O)c2cn(CC(=O)Nc3ccc(Cl)cc3)c3cc4c(cc3c2=O)OCO4)cc1`: the AC50 is 6.31 µM [falling, partial curve].

In the case of `COc1ccc(S(=O)(=O)NCC(c2cccs2)S(=O)(=O)c2ccccc2)cc1OC` (configuration not stated), the half-maximal activity concentration (AC50) was 3.98 µM [rising, partial curve].

As for `COc1ccc(-c2nnc(SCC(=O)Nc3cccc(C(F)(F)F)c3)s2)cc1`, the AC50 is 12.6 µM [rising, partial curve].

For `CCS(=O)(=O)c1ncc(N(Cc2ccccc2)Cc2ccco2)c(C(=O)Nc2cccc(Cl)c2C)n1`, the AC50 was 3.16 µM [falling, full curve].

For `COc1ccccc1C(=O)Nc1ccc2nc(SCC(=O)N(C)c3ccccc3)sc2c1`, the AC50 was 1.58 µM [falling, full curve].

As to `CCCCCC(=O)Nc1ccccc1N1CCN(c2ccccc2)CC1`, the AC50 was 31.6 µM [falling, single point].

Regarding `CCOc1ccc(CNC(=O)c2ccc3c(c2)c(C)c(C)n3Cc2ccccc2)cc1OC`, the AC50 is 10 µM [falling, full curve].

With `O=C(COc1ccc(Cl)cc1)NCc1nnc(SCC(=O)Nc2ccc3c(c2)OCCO3)o1`, the AC50 is 12.6 µM [falling, partial curve].

With `COC(=O)c1ccc(Cl)cc1NC(=O)Nc1nnc(N2CCCC2)s1`, the AC50 is 15.8 µM [falling, partial curve].

As for `COc1ccc(CCNC(=O)c2ccc3c(c2)N(Cc2ccccc2)C(=O)c2ccccc2S3=O)cc1OC` (configuration not stated), the AC50 is 0.501 µM [rising, full curve].

`Fc1ccc(C(c2nnc(-c3ccccc3)o2)N2CCN(c3cccc(Cl)c3)CC2)cc1` (configuration not stated): the AC50 is 7.94 µM [falling, full curve].

As for `COC(=O)c1ccc(NC(=O)c2cccc(OC)c2)cc1`, the half-maximal activity concentration (AC50) is 12.6 µM [falling, partial curve].

Take `CCOC(=O)C(CC)n1nnc2sc(-c3ccccc3)cc2c1=O` (configuration not stated): the AC50 was 25.1 µM [falling, single point].

`CC(=O)c1cccc(NC(=O)CSc2nnc3ccc(-c4ccc(Br)cc4)nn23)c1`: the AC50 was 6.31 µM [rising, single point].

In the case of `Cc1ccc(Nc2c(-c3c[nH]c4ccccc34)nc3ccccn23)cc1`, the AC50 was 0.0316 µM [falling, full curve].

Regarding `CC(C)Oc1ccccc1-c1nc(SCC(=O)c2ccc(F)cc2)n[nH]1`, the AC50 was 25.1 µM [falling, single point].

With `Cc1ccc(CNC(=O)CSc2nc3c(sc4ccccc43)c(=O)n2CCCOC(C)C)cc1`, the AC50 is 7.94 µM [rising, partial curve].

Turning to `COc1ccc(OC)c(CCNC(=O)c2cc3c(s2)-c2c(C)cccc2OC3)c1`, the AC50 was 6.31 µM [falling, full curve, poor fit].

`O=C(c1ccc(F)cc1)c1cn(Cc2ccccc2F)c2cc3c(cc2c1=O)OCCO3`: the AC50 was 25.1 µM [falling, single point].

As for `Cc1cccc(-c2nc(CN3CCCC(C(=O)N4CCN(c5cc(Cl)ccc5C)CC4)C3)c(C)o2)c1` (configuration not stated), the AC50 is 12.6 µM [falling, partial curve].

Take `COC(=O)CSc1ncc2c(n1)-c1ccccc1N(Cc1ccc(Cl)cc1)S2(=O)=O`: the AC50 is 31.6 µM [falling, partial curve].

`COc1ccc(NC(=O)c2c(C)oc3ccc(O)c(CN4CCC(C)CC4)c23)cc1Cl`: the AC50 was 25.1 µM [falling, single point].

On to `Cn1ncc2c(Nc3cc(C(F)(F)F)ccc3Cl)ncnc21`, for which the AC50 was 5.01 µM [rising, full curve, poor fit].

Take `CC(NC(=O)c1ccc2c(c1)N(Cc1ccc(Cl)cc1)C(=O)CS2)c1ccccc1` (configuration not stated): the AC50 is 6.31 µM [falling, partial curve].

As for `Cc1nn2c3cc(N4CCOCC4)ccc3nc2c2ccccc12`, the AC50 was 3.98 µM [rising, partial curve].

For the molecule `CC(=O)Oc1ccc(N2C(=O)C3C(C2=O)C2(C)C=CC3(C)O2)cc1` (configuration not stated), the AC50 was 5.01 µM [falling, full curve].

`CCN(c1cccc(C)c1)S(=O)(=O)c1cc(Br)cc2c1N(C(C)=O)C(C)C2` (configuration not stated): the half-maximal activity concentration (AC50) was 20 µM [falling, partial curve].

On to `CCc1ccc(-n2nnc(-c3nc(-c4cccs4)no3)c2N)cc1`, for which the AC50 was 2.51 µM [rising, partial curve].

Regarding `CC(C)OC(=O)c1ccc(Cn2nnc3sc4c(c3c2=O)CCCC4)cc1`, the AC50 is 12.6 µM [falling, partial curve].

Turning to `CCCN(c1c(C)n(C)n(-c2ccccc2)c1=O)S(=O)(=O)c1ccc(C)cc1`, the half-maximal activity concentration (AC50) was 3.98 µM [rising, partial curve].

Consider `COc1cc(Br)cc(/C=N/c2ncn[nH]2)c1O`, for which the AC50 is 7.94 µM [falling, full curve, poor fit].

For the molecule `CC(C)(C)C1CCc2c(sc(NC(=O)c3cc4ccccc4c(=O)o3)c2C(N)=O)C1` (configuration not stated), the AC50 is 10 µM [falling, partial curve].

`COc1ccccc1NC(=O)CN1CCN(CC(=O)Nc2ccc(Cl)c(C(F)(F)F)c2)CC1`: the concentration at half-maximal activity (AC50) was 7.94 µM [falling, partial curve].

For the molecule `Cc1ccc(-c2nc(C)c(CCNC(=O)c3cccs3)s2)cc1`, the AC50 was 39.8 µM [falling, partial curve, poor fit].

On to `Clc1ccccc1C1=Nn2c(nnc2-c2ccncc2)SC1`, for which the AC50 is 15.8 µM [falling, partial curve].

For `O=C(CSc1nnc(-c2ccco2)n1Cc1ccccc1)c1ccc(F)cc1`, the AC50 was 31.6 µM [falling, single point].

Take `CC1CCN(c2nn3c(=O)c(C(=O)NCCCOC(C)C)cnc3s2)CC1`: the AC50 was 12.6 µM [rising, partial curve].

In the case of `CC(=O)c1ccc(N2CCN(C(=O)c3cc4c(-c5ccccc5F)nn(C)c4s3)CC2)cc1`, the AC50 was 3.16 µM [falling, full curve].

Turning to `O=C(c1cc2nc(-c3ccccc3)cc(-c3ccccc3)n2n1)N1CCN(C(=O)c2ccco2)CC1`, the AC50 is 7.94 µM [falling, partial curve].

For `CCc1cccc(NC(=O)c2cc3c(=O)n(Cc4ccccc4)ccc3nc2C)c1`, the half-maximal activity concentration (AC50) is 15.8 µM [falling, single point].

On to `CC(C)c1ccc(NC(=O)C2CCN(C(=O)c3ccc(F)cc3)CC2)cc1`, for which the AC50 is 25.1 µM [falling, partial curve].

With `COc1cc(C(=O)Nc2ccccc2-c2nc(-c3ccccc3)no2)cc(OC)c1OC`, the AC50 was 0.1 µM [rising, full curve].

For `Cc1ccc2nc(-c3cccs3)c(Nc3c(C)cccc3C)n2c1`, the AC50 was 7.94 µM [falling, full curve].

On to `Cc1c(C(=O)NCc2ccc(F)cc2)oc2ccc(S(=O)(=O)N3CCCCC3)cc12`, for which the AC50 is 25.1 µM [falling, partial curve, poor fit].

Turning to `COc1ccc(NC(=O)[C@H]2O[C@@H]3OC(C)(C)O[C@@H]3[C@H]3OC(C)(C)O[C@H]32)c(OC)c1`, the half-maximal activity concentration (AC50) was 20 µM [falling, partial curve].

`COc1ccc(CCNc2oc(Cc3ccccc3)nc2C#N)cc1OC`: the half-maximal activity concentration (AC50) was 25.1 µM [falling, single point].

In the case of `Cn1c(=O)[nH]c(=O)c2c1nc(N1CCOCC1)n2Cc1ccccc1`, the AC50 is 0.0126 µM [rising, full curve, poor fit].

With `c1ccc2c(c1)oc1c(Nc3ccc(CN4CCOCC4)cc3)ncnc12`, the AC50 is 3.98 µM [falling, partial curve].

Consider `Cc1ccc(NC(=O)CSc2nc(=O)n(Cc3cccnc3)c3c2CCC3)cc1F`, for which the concentration at half-maximal activity (AC50) is 12.6 µM [falling, partial curve].

Turning to `Cc1ccccc1Oc1nc2ccccn2c(=O)c1/C=C(\C#N)c1nc2ccccc2[nH]1`, the AC50 was 31.6 µM [falling, single point].

`COc1ccc(Cc2nc3ccc(C(=O)NCc4ccccc4C)cc3o2)cc1`: the AC50 is 5.01 µM [falling, partial curve, poor fit].

As for `COc1ccc(NC(=O)CN2C(=O)CC(c3ccc(C)c(C)c3)=Nc3ccccc32)cc1OC`, the AC50 was 31.6 µM [falling, partial curve].

As for `COc1ccc(N(Cc2cc3ccccc3[nH]c2=O)C(=O)c2cccc(Cl)c2)cc1`, the AC50 is 25.1 µM [falling, partial curve].

Take `Cc1ccc(NC(=O)c2c(C)cc(C)nc2SCC(=O)Nc2ccc(Br)cc2)cc1`: the AC50 is 3.98 µM [falling, full curve].

Values taken from PubChem BioAssay AID445 (National Center for Advancing Translational Sciences (NCATS), 2006).
